Measurements published in publication PMC12261106.
Construct, isoform or probe ends are uncertain for at least one entry.

Tested on: LcRAP2.4 (Litchi chinensis Sonn.)
Experiment: EMSA
Details: LightShift Chemiluminescent EMSA kit, nondenaturing polyacrylamide gel; pH and temperature not stated; recombinant protein; protein details: GST (pGEX-4T, N-terminal)

Does “TCTTGAGGACGGCAAAGGTCGGTGTCGGTGATGTTTGAAC (double strand) [LcPIP1;4 promoter DRE/CRT probe]” bind?
Result: binds
